Reference: PubChem BioAssay AID540276 (National Center for Advancing Translational Sciences (NCATS), 2011)
The whole screen tested about 300,000 compounds, of which about 5,400 (1.8%) were called active. Inconclusive means that the source gave no clear call. Such entries were picked first, then a sample of the others. Calls follow the shape of the full dose curve; tested in HEK293 cells. Potencies of inconclusive entries are doubtful fits and often do not repeat.

assay: qHTS for inhibitors of binding or entry into cells for Marburg Virus; conditions: Marburg virus pseudotyped entry inhibition, cell reporter; series mostly up to 37.8 µM
Potency is read from the fitted curve at half-maximal effect.

Structure (SMILES) | Potency
O=C(/C=C/c1ccccc1)NCCN1CCOCC1 | inconclusive: 31.6 µM [activator, single point]
CCCCn1cnc(C(=O)OCC)c1N | inconclusive: 3.55 µM [activator, single point]
O=C(COC(=O)c1cccnc1Nc1ccccc1F)NC1CC1 | inactive
CCn1c(COc2ccccc2)nnc1SCC(=O)c1cccc([N+](=O)[O-])c1 | inconclusive: 25.9 µM [inhibitor, single point]
Cc1ccc2nc(/C(C#N)=C/c3cccc(Br)c3)[nH]c2c1 | inconclusive: 35.5 µM [inhibitor, partial curve, poor fit]
O=C(Cc1csc2ccccc12)NCc1cccc(Br)c1 | inactive
COc1cc(-c2cc(C(=O)Nc3ccc(C)c(S(=O)(=O)N4CCOCC4)c3)c3ccccc3n2)cc(OC)c1OC | inconclusive: 11.2 µM [inhibitor, partial curve, poor fit]
Cc1noc(C)c1CSc1nc2ccccc2s1 | inactive
COc1cccc(N=Nc2c(N)[nH][nH]c2=O)c1 | inactive
Cc1ccc(NC(=O)Nc2nnc(Cc3ccc(F)cc3)s2)cc1 | inconclusive: 7.08 µM [inhibitor, full curve, poor fit]
CC(C)(CNC(=S)NCCc1ccccc1)CNC(=S)NCCc1ccccc1 | inconclusive: 23.1 µM [inhibitor, partial curve, poor fit]
Cc1nnc(SCC(=O)Nc2cc(S(=O)(=O)N3CCCC3)ccc2Cl)s1 | inconclusive: 35.5 µM [inhibitor, single point]
OC1CCN(Cc2cn(Cc3ccccc3)nc2-c2cc3ccccc3o2)CC1 | inconclusive: 35.5 µM [inhibitor, partial curve, poor fit]
c1ccc(C[n+]2cccc3c4ccccc4ccc32)cc1 | inconclusive: 10 µM [inhibitor, partial curve, poor fit]
N#Cc1c(/N=C/c2ccco2)oc(-c2ccccc2)c1-c1ccccc1 | inconclusive: 0.447 µM [inhibitor, full curve, poor fit]
CCOc1ccc(OCC(=O)N2CCOCC2)cc1 | inactive
Cc1nc2ccc(C(=O)OCc3nnc(-c4ccccc4)o3)cc2nc1C | inactive
CCOc1ccc(CCNC(=O)CCCc2cc(-c3ccc(OCC)cc3)on2)cc1 | inconclusive: 2.82 µM [inhibitor, single point]
CCCN(CCC)CCCNC(=O)c1cc2c(=O)oc3ccc(C)cc3c2s1 | inactive
Oc1ccc(-c2csc(-c3cccnc3)n2)c(O)c1 | inconclusive: 35.5 µM [inhibitor, single point]
Cc1ccc(CN2CCSc3ccc(C(=O)Nc4ccc(Cl)cc4)cc32)cc1 | inactive
O=C(NC1CC1)c1ccc2snnc2c1 | inconclusive: 6.31 µM [inhibitor, partial curve, poor fit]
COc1ccc(N2CCN(C(=O)COc3ccc4ccccc4c3)CC2)cc1 | inactive
CCC(=O)N1CCc2cc(Br)cc(S(=O)(=O)CCC(=O)Nc3cccc(CC)c3)c21 | inactive

Structure (SMILES) | Potency
Cc1cc2ccccn2c1C(=O)c1cccc(S(=O)(=O)N2CCOCC2)c1 | inconclusive: 7.08 µM [inhibitor, partial curve, poor fit]
CCOC(=O)c1c(/N=C/C2=C(O)CC(C)(C)CC2=O)sc(C(C)=O)c1C | inconclusive: 35.5 µM [activator, single point]
COCCNC(=O)C(c1ccc(C)o1)N(Cc1cccs1)C(=O)c1snc(C(N)=O)c1N (stereo not given) | inconclusive: 18.3 µM [inhibitor, partial curve, poor fit]
Cc1ccc(Nc2cc(C)nc3nc(Cc4ccc(Cl)cc4)nn23)cc1 | inactive
COC(=O)c1ccc(N=NN2CCCCC2)cc1 | inconclusive: 1.12 µM [activator, partial curve, poor fit]
CCc1cc(S(N)(=O)=O)cc(CC)c1NC(C)=O | inconclusive: 1.26 µM [activator, partial curve, poor fit]
CCOc1ccc(NC(=O)CN(c2ccc([N+](=O)[O-])cc2)S(=O)(=O)c2ccccc2)cc1 | inconclusive: 10 µM [inhibitor, partial curve, poor fit]
Cn1c(=O)c2c(nc(-n3ccnc3)n2Cc2ccc(Cl)cc2Cl)n(C)c1=O | inconclusive: 29.1 µM [inhibitor, single point]
CCCCOC(=O)Nc1nnc(SCCOc2ccc(C)cc2)s1 | inactive
CCOC(=O)c1c(-c2ccccc2)oc2ccc(NS(=O)(=O)c3ccc(OC)cc3)cc12 | inconclusive: 7.08 µM [inhibitor, partial curve, poor fit]
CCN(Cc1ccncc1)C(=O)c1cc(COc2ccc(C)c(C)c2)on1 | inconclusive: 11.2 µM [inhibitor, single point]
O=C(CSc1nc(=O)n(CCN2CCOCC2)c2c1CCCC2)Nc1ccc(F)cc1F | inactive
COc1ccccc1N(C)S(=O)(=O)c1ccc(Cl)c(C(=O)Nc2ccncc2)c1 | inconclusive: 3.98 µM [activator, single point]
CCCCCCCSc1cc(OC)c(CCNC)cc1OC | inconclusive: 14.1 µM [inhibitor, single point]
O=C(O)c1ccc(/C=N/Nc2nc(N3CCCCC3)nc(N3CCCCC3)n2)cc1 | inactive
Cc1ccccc1N(C(=O)CNC(=O)c1cccs1)C(C(=O)NC1CCCC1)c1ccncc1 (stereo not given) | inactive
O=C(NCC1CCN(S(=O)(=O)c2ccccc2)CC1)Nc1ccc(F)cc1 | inconclusive: 14.1 µM [inhibitor, partial curve, poor fit]
O=C(Cc1cccs1)NCCS(=O)(=O)N1CCN(c2ccccc2F)CC1 | inconclusive: 3.16 µM [inhibitor, full curve]
O=C(c1cc(C2CC2)nn1-c1ccccc1)N1CCN(c2ccccc2O)CC1 | inactive
Cc1nc(SC2CC(=O)N(c3ccc([N+](=O)[O-])cc3)C2=O)nc2c1CCCC2 (stereo not given) | inactive
CCOC(=O)C1CCN(C(=O)Nc2ccc3nc(-c4ccco4)c(-c4ccco4)nc3c2)CC1 | inconclusive: 7.08 µM [inhibitor, partial curve]
CCOc1ccccc1NC(=O)CSc1ncnc2c1oc1ccccc12 | inactive
COc1ccc(S(=O)(=O)N2CCC(C(=O)NC3CC3)CC2)cc1C | inconclusive: 5.62 µM [inhibitor, single point]
O=C(COC(=O)c1cccs1)Nc1ccc(Cl)cn1 | inactive

Structure (SMILES) | Potency
Cc1cccc(CSc2nnc(N)n2-c2ccccc2)c1 | inactive
CN(C(=O)COC(=O)C1c2ccccc2Oc2ccccc21)C1CCS(=O)(=O)C1 (stereo not given) | inconclusive: 1.41 µM [inhibitor, partial curve, poor fit]
O=C(CSc1nc(-c2ccc(F)cc2)cc(C(F)(F)F)n1)NCc1ccccc1 | inconclusive: 35.5 µM [activator, single point]
CCN1CCN(c2ccc(S(=O)(=O)N3CCOCC3)cc2NC(=O)c2ccc(Cl)s2)CC1 | inactive
Cc1ccc(-n2c(SCC(=O)NC3CCS(=O)(=O)C3)nc3ccccc3c2=O)cc1C (stereo not given) | inactive
COC(=O)CN1C(=O)C(C)(C)Oc2ccc(C(=O)Nc3cccc(OC)c3)cc21 | inconclusive: 35.5 µM [inhibitor, partial curve, poor fit]
CCOc1ccc(NC(=O)CN(C)C(=O)CCNC(=O)c2ccccc2Cl)cc1OCC | inactive
Cc1ccc(NC(=O)c2cc(C)nn2-c2ccccc2)cc1 | inconclusive: 5.62 µM [activator, single point]
CC(=O)c1cccc(NC2c3ncccc3C(=O)N2Cc2ccco2)c1 (stereo not given) | inconclusive: 32.6 µM [inhibitor, single point]
O=C(CNC(=O)c1sc2ccccc2c1Cl)Nc1ccccc1F | inconclusive: 15.8 µM [inhibitor, single point]
COc1ccc(N(Cc2cccs2)C(=O)c2ccccc2C)cc1 | inconclusive: 5.62 µM [inhibitor, single point]
O=C1CSC(=Nc2cccc(Cl)c2Cl)N1Cc1cccnc1 | inconclusive: 35.5 µM [inhibitor, single point]
Cc1[nH]c(=O)c(C(=O)/C=C/c2ccccc2)c2c1CCCC2 | inconclusive: 29.1 µM [inhibitor, partial curve, poor fit]
CC(OC(=O)c1nc(Cl)ccc1Cl)C(=O)c1ccccc1 (stereo not given) | inconclusive: 6.31 µM [activator, single point]
C#CCSC1=C(C#N)[C@@H](c2cccs2)C(C(=O)OCC)=C(C)N1 | inactive
Cc1nc2scc(C)n2c(=O)c1S(=O)(=O)NCc1ccccc1Cl | inconclusive: 0.316 µM [activator, full curve, poor fit]
O=C(NC1CCCCCC1)C1c2ccccc2C(=O)N1Cc1cccs1 (stereo not given) | inconclusive: 18.4 µM [inhibitor, single point]
FC(F)(F)c1cc(-c2cccs2)nc(N2CCOCC2)n1 | inconclusive: 35.5 µM [inhibitor, single point]
Cc1ccc(N=Cc2cccc(O)c2O)c(C)c1 | inactive
CC(C)=CC1C(C(=O)NCCc2ccccc2)C1(C)C (stereo not given) | inactive
COc1cccc(C(C(=O)NC2CCCCC2)N(C(=O)c2ccco2)c2ccccc2OC)c1 (stereo not given) | inconclusive: 2.82 µM [inhibitor, full curve]
COc1ccc(CNC(=S)Nc2ccc3nc(N4CCN(C)CC4)cc(C)c3c2)cc1 | inconclusive: 12.6 µM [inhibitor, partial curve, poor fit]

Shown in markdown: entries from further up.

| Structure (SMILES) | Potency |
| --- | --- |
| Cc1ccccc1N(C(=O)CNC(=O)c1cccs1)C(C(=O)NC1CCCC1)c1ccncc1 (stereo not given) | inactive |
| O=C(NCC1CCN(S(=O)(=O)c2ccccc2)CC1)Nc1ccc(F)cc1 | inconclusive: 14.1 µM [inhibitor, partial curve, poor fit] |
| O=C(Cc1cccs1)NCCS(=O)(=O)N1CCN(c2ccccc2F)CC1 | inconclusive: 3.16 µM [inhibitor, full curve] |
| O=C(c1cc(C2CC2)nn1-c1ccccc1)N1CCN(c2ccccc2O)CC1 | inactive |
| Cc1nc(SC2CC(=O)N(c3ccc([N+](=O)[O-])cc3)C2=O)nc2c1CCCC2 (stereo not given) | inactive |
